# In publication doi:10.1101/2020.06.22.164467:
# The chains behind the UniProt entries cited, without tags or fusion partners. Residues count along the entry.
# UniProt P02545, residues 1-646: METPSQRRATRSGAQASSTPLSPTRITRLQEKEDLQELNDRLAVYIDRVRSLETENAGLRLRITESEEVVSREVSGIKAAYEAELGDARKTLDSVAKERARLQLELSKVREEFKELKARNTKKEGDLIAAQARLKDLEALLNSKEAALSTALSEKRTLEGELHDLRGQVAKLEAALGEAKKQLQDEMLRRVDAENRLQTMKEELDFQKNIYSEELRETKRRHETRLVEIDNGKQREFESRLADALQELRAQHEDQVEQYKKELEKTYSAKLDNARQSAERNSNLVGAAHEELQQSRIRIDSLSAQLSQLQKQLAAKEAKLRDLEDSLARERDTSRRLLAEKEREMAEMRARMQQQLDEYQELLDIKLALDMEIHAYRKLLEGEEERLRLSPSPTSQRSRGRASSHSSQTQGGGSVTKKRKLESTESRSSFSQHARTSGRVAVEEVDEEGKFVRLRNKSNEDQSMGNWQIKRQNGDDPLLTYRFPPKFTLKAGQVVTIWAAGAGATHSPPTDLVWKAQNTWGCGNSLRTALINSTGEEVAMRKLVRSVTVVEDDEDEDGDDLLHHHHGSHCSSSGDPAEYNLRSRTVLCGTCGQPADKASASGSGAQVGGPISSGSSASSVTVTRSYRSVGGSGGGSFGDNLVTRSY
# No constants are given. Whether binding was seen depends on the method and setting. In cells and extracts the contact can be indirect. Some entries that bind do so weakly or less than the wild type.
# Target: lamin A (human (endogenous in Caco-2)) (UniProt P02545)
# Assay: co-IP
binder,measurement,value
"lamina-associated polypeptide 2α (LAP2α) (protein, UniProt P42166 1-694) MPEFLEDPSVLTKDKLKSELVANNVTLPAGEQRKDVYVQLYLQHLTARNRPPLPAGTNSKGPPDFSSDEEREPTPVLGSGAAAAGRSRAAVGRKATKKTDKPRQEDKDDLDVTELTNEDLLDQLVKYGVNPGPIVGTTRKLYEKKLLKLREQGTESRSSTPLPTISSSAENTRQNGSNDSDRYSDNEEGKKKEHKKVKSTRDIVPFSELGTTPSGGGFFQGISFPEISTRPPLGSTELQAAKKVHTSKGDLPREPLVATNLPGRGQLQKLASERNLFISCKSSHDRCLEKSSSSSSQPEHSAMLVSTAASPSLIKETTTGYYKDIVENICGREKSGIQPLCPERSHISDQSPLSSKRKALEESESSQLISPPLAQAIRDYVNSLLVQGGVGSLPGTSNSMPPLDVENIQKRIDQSKFQETEFLSPPRKVPRLSEKSVEERDSGSFVAFQNIPGSELMSSFAKTVVSHSLTTLGLEVAKQSQHDKIDASELSFPFHESILKVIEEEWQQVDRQLPSLACKYPVSSREATQILSVPKVDDEILGFISEATPLGGIQAASTESCNQQLDLALCRAYEAAASALQIATHTAFVAKAMQADISQAAQILSSDPSRTHQALGILSKTYDAASYICEAAFDEVKMAAHTMGNATVGRRYLWLKDCKINLASKNKLASTPFKGGTLFGGEVCKVIKKRGNKH",binding,binds
